Measurements as given in PubChem BioAssay AID445 (National Center for Advancing Translational Sciences (NCATS), 2006).
The list shows a part of the results. These are further read-outs of the screen, such as a control signal, another cell line or another target. No call is given for them. Most of these compounds were active or inconclusive in the main read-out, so they are no random draw. The note in brackets gives the kind of curve behind each potency; many fits are weak.

Assay: IkB Signaling
Conditions: ABC-DLBCL IkBa-CBG/CBR dual luciferase ratio (green luciferase fused to IkBa over red control in OCI-Ly3 lymphoma cells), 4 h; measured here: control luc red channel unless noted
Outline: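 Luminescence ratio of IκBα-fused green versus native red beetle luciferase in OCI-Ly3 cells, 4 h post-doxycycline with compound; red signal alone, scaled from basal (0%) to zero light (-100%), flagged nonspecific or cytotoxic effects.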
With `COc1ccc(C(Nc2ccccn2)c2ccc3ccc(C)nc3c2O)cc1C` (stereo not drawn) the AC50 was 6.31 µM [falling, partial curve].
With `O=C(NCc1ccco1)C1CCN(C(=O)c2cc3sccc3n2Cc2ccc(Cl)cc2)CC1` the AC50 was 7.94 µM [falling, full curve].
For `CN1CCN(c2ncnc3c2cnn3-c2cccc(Cl)c2)CC1`, the AC50 was 10 µM [falling, partial curve].
In the case of `Cc1cccc(N2CCN(C3=C(c4ccccc4)C(=O)c4ccccc43)CC2)c1C`, the AC50 is reported as 7.94 µM [falling, partial curve].
With `COc1cc(OC)c(OC)cc1/C=C/c1nc2cc3ccccc3cc2c(=O)n1-c1ccccc1Br` the AC50 was 1.58 µM [falling, full curve].
With `c1ccc(C2=Nn3c(nnc3-c3cc(-c4ccccc4)n[nH]3)SC2)cc1` the AC50 was 25.1 µM [falling, single point].
For `COCCNC(=O)c1cc(-c2cccc(OC)c2)on1`, the AC50 was 12.6 µM [falling, partial curve].
For `CCN1CCN(c2oc(-c3ccc(COc4ccccc4C)o3)nc2C#N)CC1`, the AC50 was 31.6 µM [falling, single point].
For `O=C(Nc1cccc(-c2nc3cc(Cl)ccc3o2)c1)C1CCCO1` (stereo not drawn), the AC50 was 15.8 µM [falling, single point].
With `Cc1noc(C)c1S(=O)(=O)N(CC(=O)Nc1ccc(F)cc1F)c1ccc(C(C)C)cc1` the AC50 was 3.98 µM [falling, full curve].
In the case of `CCCNC(=O)c1ccc2c(c1)nc1n2CCCCC1`, the AC50 is reported as 39.8 µM [falling, single point].
With `COc1cccc(CNC(=O)Cn2ncn3nc(-c4cccs4)cc3c2=O)c1` the AC50 was 31.6 µM [falling, single point].
With `COc1ccc(Cn2ccc3nc(C)c(C(=O)Nc4cccc(SC)c4)cc3c2=O)cc1` the AC50 was 15.8 µM [falling, partial curve].
In the case of `COc1cc(OC)cc(C(=O)Nc2cc3c(cc2N2CCCCC2)n(C)c(=O)n3C)c1`, the AC50 is reported as 39.8 µM [falling, single point].
In the case of `CCN(CCNC(=O)C1CCN(Cc2nc(-c3ccc(Cl)cc3)oc2C)CC1)c1ccccc1`, the AC50 is reported as 10 µM [falling, partial curve].
For `COc1ccc(C)cc1-n1nnnc1SCc1nc2ccccc2s1`, the AC50 was 6.31 µM [falling, partial curve].
In the case of `Cc1ccc(N2C(=O)CC(c3ccccc3F)C3=C2COC3=O)cc1Cl` (stereo not drawn), the AC50 is reported as 20 µM [falling, single point].
For `O=C(NCCc1c[nH]c2ccccc12)c1ccc(S(=O)(=O)NCc2ccco2)cc1`, the AC50 was 20 µM [falling, partial curve].
